Measured values reported in publication doi:10.1101/2024.07.23.604837.
Positions count from the first letter of the chain named. Read-outs that look alike come from different tables or passages of the source. These are yes or no findings as the source states them, for the method shown. Binding seen in cells or lysates may run through a third protein. Some binding calls cover weakened binding; strength is not graded here. For some of these results: Tags and fused reporters may be left off the sequences shown.

T1: FLAG-tagged ZFC3H1 N-terminal region (residues 1-990) (UniProt O60293)
T1 sequence: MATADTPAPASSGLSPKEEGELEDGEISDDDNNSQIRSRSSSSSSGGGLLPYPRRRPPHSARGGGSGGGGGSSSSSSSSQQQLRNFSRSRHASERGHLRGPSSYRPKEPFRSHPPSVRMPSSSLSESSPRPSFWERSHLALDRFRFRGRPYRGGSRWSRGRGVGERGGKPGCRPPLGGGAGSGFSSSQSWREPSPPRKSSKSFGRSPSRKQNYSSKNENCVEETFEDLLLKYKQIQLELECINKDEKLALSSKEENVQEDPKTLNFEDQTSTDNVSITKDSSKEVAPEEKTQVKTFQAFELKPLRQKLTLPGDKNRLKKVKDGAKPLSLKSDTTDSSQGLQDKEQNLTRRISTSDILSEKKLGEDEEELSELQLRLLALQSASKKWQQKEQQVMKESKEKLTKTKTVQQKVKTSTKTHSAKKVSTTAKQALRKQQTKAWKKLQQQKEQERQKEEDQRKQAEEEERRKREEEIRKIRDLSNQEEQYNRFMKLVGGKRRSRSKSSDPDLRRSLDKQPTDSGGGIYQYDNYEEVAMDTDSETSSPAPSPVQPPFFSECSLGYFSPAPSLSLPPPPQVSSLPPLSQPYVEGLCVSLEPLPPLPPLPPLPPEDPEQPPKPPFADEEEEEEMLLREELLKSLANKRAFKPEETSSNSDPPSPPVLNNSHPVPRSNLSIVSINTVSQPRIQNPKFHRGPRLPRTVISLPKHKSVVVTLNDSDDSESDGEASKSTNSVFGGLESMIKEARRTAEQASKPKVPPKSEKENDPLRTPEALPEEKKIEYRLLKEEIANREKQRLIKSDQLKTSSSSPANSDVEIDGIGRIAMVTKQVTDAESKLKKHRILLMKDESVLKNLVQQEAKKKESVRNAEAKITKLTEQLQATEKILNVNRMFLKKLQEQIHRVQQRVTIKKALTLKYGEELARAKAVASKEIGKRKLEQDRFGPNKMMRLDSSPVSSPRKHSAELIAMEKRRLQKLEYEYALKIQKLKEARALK

T2: FLAG-tagged ZFC3H1 N-term SLiM mutant (N-term ΔSLiM) (UniProt O60293)
T2 sequence: T1 sequence with E19A, E21A, D24A, E26A

T3: FLAG-tagged ZFC3H1 residues 600-990 (UniProt O60293)
T3 sequence: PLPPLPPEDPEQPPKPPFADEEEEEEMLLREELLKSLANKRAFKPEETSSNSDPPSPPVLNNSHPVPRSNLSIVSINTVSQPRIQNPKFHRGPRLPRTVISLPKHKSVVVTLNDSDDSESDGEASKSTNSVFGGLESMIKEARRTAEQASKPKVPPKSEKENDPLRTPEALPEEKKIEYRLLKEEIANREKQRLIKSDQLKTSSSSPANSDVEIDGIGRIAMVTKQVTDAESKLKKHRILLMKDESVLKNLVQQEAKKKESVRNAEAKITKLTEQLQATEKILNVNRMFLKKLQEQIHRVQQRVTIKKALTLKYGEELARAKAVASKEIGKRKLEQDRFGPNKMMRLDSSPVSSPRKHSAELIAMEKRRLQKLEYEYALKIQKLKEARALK

B1: ARS2 (protein, UniProt Q9BXP5 1-876)
chain: MGDSDDEYDRRRRDKFRRERSDYDRSRERDERRRGDDWNDREWDRGRERRSRGEYRDYDRNRRERFSPPRHELSPPQKRMRRDWDEHSSDPYHSGYEMPYAGGGGGPTYGPPQPWGHPDVHIMQHHVLPIQARLGSIAEIDLGVPPPVMKTFKEFLLSLDDSVDETEAVKRYNDYKLDFRRQQMQDFFLAHKDEEWFRSKYHPDEVGKRRQEARGALQNRLRVFLSLMETGWFDNLLLDIDKADAIVKMLDAAVIKMEGGTENDLRILEQEEEEEQAGKPGEPSKKEEGRAGAGLGDGERKTNDKDEKKEDGKQAENDSSNDDKTKKSEGDGDKEEKKEDSEKEAKKSSKKRNRKHSGDDSFDEGSVSESESESESGQAEEEKEEAEEALKEKEKPKEEEWEKPKDAAGLECKPRPLHKTCSLFMRNIAPNISRAEIISLCKRYPGFMRVALSEPQPERRFFRRGWVTFDRSVNIKEICWNLQNIRLRECELSPGVNRDLTRRVRNINGITQHKQIVRNDIKLAAKLIHTLDDRTQLWASEPGTPPLPTSLPSQNPILKNITDYLIEEVSAEEEELLGSSGGAPPEEPPKEGNPAEINVERDEKLIKVLDKLLLYLRIVHSLDYYNTCEYPNEDEMPNRCGIIHVRGPMPPNRISHGEVLEWQKTFEEKLTPLLSVRESLSEEEAQKMGRKDPEQEVEKFVTSNTQELGKDKWLCPLSGKKFKGPEFVRKHIFNKHAEKIEEVKKEVAFFNNFLTDAKRPALPEIKPAQPPGPAQILPPGLTPGLPYPHQTPQGLMPYGQPRPPILGYGAGAVRPAVPTGGPPYPHAPYGAGRGNYDAFRGQGGYPGKPRNRMVRGDPRAIVEYRDLDAPDDVDFF
B2: PABPN1 (protein, UniProt Q86U42 1-306)
chain: MAAAAAAAAAAGAAGGRGSGPGRRRHLVPGAGGEAGEGAPGGAGDYGNGLESEELEPEELLLEPEPEPEPEEEPPRPRAPPGAPGPGPGSGAPGSQEEEEEPGLVEGDPGDGAIEDPELEAIKARVREMEEEAEKLKELQNEVEKQMNMSPPPGNAGPVIMSIEEKMEADARSIYVGNVDYGATAEELEAHFHGCGSVNRVTILCDKFSGHPKGFAYIEFSDKESVRTSLALDESLFRGRQIKVIPKRTNRPGISTTDRGFPRARYRARTTNYNSSRSRFYSGFNSRPRGRVYRGRARATSWYSPY

Legend:
Test in all cases: co-IP
[1] = target: FLAG-tagged ZFC3H1, full length (UniProt O60293)
[2] = target: FLAG-tagged ZFC3H1, full length (UniProt O60293); remark: listed apart in the source
[3] = target: T1, FLAG-tagged ZFC3H1 N-terminal region (residues 1-990)
[4] = target: T2, FLAG-tagged ZFC3H1 N-term SLiM mutant (N-term ΔSLiM)
[5] = target: T3, FLAG-tagged ZFC3H1 residues 600-990

Binder | binding [1] | binding [2] | binding [3] | binding [4] | binding [5]
B1 | binds | binds | binds | no binding | 
B2 |  |  | binds | binds | binds
